In US20040214805A1, “Method and compositions for treating pulmonary diseases” (SmithKline Beecham Corporation, priority 1999, published 2004):
At least one compound was matched to its structure with a doubt left. Some of these results come from one statement about several compounds together.

Key:
[1] = target: PDE 4 (high affinity and low affinity rolipram binding forms); experiment: IC50 ratio: [3H]R-rolipram binding (high affinity form) over PDE4 catalytic activity (low affinity form); assay type: biochemical, human; details: 1 nM [3H]R-rolipram; 1 micro M [3H]-cAMP substrate
asthma patients = details: comparators, cited from earlier work; for % Max fall LAR (treatment effect) / % Protection max fall LAR: ICS = 800 mcg budesonide

Structure (SMILES) | IC50 ratio (IC50 for PDE4 form binding rolipram with high affinity divided by IC50 for form binding rolipram with low affinity) [1] | % Max fall LAR (treatment effect) (asthma patients) [%] | % Protection max fall LAR (asthma patients) [%] | % AUC of LAR (treatment effect) (asthma patients) [%] | % Protection AUC LAR (asthma patients) [%]
COC(=O)C1CC(C#N)(c2ccc(OC(F)F)c(OCC3CC3)c2)CCC1=O (stereo not drawn) [2-carbomethoxy-4-cyano-4-(3-cyclopropylmethoxy-4-difluoromethoxyphenyl)cyclohexan-1-one] | ≥ 0.1 |  |  |  | 
CC(C)(O)c1ccccc1CC[C@@H](SCC1(CC(=O)O)CC1)c1cccc(/C=C/c2ccc3ccc(Cl)cc3n2)c1 [Singulaire, montelukast] |  | 12.3 | 36.4 | 63.5 | 56.9
CCCC1O[C@@H]2C[C@H]3[C@@H]4CCC5=CC(=O)C=C[C@]5(C)[C@H]4[C@@H](O)C[C@]3(C)[C@]2(C(=O)CO)O1 (stereo partly drawn) [budesonide] |  | 22.9 | 32 |  | 
COc1ccc([C@]2(C#N)CC[C@@H](C(=O)O)CC2)cc1OC1CCCC1 [cilomalast, cis 4-cyano-4-(3-cyclopentyloxy-4-methoxyphenyl)cyclohexan-1-carboxylic acid] | ≥ 0.1 |  |  |  | 
N#CC1(c2ccc(OC(F)F)c(OCC3CC3)c2)CCC(O)CC1 (stereo not drawn) [is-[4-cyano-4-(3-cyclopropylmethoxy-4-difluoromethoxyphenyl)cyclohexan-1-ol]] | ≥ 0.1 |  |  |  | 
